Consider two substances from PMC3348923.

Sequences of proteins named here, by UniProt entry; tags and fusion partners are left off. A change or cut given only in a name is not applied to a line headed by its entry.
UniProt Q86TM6: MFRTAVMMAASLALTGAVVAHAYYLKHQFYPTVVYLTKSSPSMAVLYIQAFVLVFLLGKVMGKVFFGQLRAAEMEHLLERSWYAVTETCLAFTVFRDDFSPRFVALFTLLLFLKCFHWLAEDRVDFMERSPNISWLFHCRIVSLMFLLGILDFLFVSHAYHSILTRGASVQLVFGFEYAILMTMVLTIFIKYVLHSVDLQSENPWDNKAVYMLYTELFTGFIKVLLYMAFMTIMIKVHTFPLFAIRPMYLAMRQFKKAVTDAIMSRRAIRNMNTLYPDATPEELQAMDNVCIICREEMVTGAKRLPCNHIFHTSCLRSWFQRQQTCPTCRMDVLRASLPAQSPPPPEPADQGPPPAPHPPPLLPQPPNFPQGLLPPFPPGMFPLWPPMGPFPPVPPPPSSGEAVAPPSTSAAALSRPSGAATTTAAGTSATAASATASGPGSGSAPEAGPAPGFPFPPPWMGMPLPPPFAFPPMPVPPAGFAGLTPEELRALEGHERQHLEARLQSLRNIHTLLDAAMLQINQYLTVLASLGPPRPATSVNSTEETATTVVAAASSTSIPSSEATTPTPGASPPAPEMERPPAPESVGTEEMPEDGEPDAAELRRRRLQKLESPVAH
UniProt Q9UHP3: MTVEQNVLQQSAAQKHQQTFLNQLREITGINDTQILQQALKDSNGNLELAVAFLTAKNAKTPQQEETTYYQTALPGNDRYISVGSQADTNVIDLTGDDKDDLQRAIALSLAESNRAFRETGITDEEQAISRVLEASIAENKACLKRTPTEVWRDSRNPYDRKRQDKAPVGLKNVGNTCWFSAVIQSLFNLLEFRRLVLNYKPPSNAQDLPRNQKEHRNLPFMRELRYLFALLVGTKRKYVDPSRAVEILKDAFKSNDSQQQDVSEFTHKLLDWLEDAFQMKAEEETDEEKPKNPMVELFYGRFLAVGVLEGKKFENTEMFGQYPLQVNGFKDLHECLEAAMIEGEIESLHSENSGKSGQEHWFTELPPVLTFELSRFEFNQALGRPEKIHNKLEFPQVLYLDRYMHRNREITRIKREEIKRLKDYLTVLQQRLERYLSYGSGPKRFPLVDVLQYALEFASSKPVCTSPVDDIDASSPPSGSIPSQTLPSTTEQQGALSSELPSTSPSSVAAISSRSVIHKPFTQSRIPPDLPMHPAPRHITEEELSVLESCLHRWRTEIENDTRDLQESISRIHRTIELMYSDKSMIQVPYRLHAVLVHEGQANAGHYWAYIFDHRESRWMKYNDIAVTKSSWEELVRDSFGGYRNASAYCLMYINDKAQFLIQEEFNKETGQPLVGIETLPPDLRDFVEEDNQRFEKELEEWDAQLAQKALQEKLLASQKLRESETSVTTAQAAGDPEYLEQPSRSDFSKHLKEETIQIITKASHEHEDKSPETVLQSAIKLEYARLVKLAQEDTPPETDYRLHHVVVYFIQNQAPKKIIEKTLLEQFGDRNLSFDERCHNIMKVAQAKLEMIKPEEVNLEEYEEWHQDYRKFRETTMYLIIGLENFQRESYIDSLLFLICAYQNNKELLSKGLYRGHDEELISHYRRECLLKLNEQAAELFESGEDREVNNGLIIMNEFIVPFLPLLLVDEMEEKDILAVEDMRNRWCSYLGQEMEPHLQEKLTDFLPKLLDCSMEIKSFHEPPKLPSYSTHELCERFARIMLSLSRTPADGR

Results are given in words; binding and its absence hold for the method and conditions named. Binding seen in cells or lysates may run through a third protein. Binding can be weak; no strength is given.

This test deals with V5-HRD1 (UniProt Q86TM6). Briefly: co-IP; HEK-293 cells transfected, harvested 48 h later; lysed in NETN buffer (50 mM TRIS pH 7.5, 150 mM NaCl, 0.5% NP40) with protease inhibitors; tagged protein precipitated with bead-bound anti-tag antibodies, washed 3X, eluted with 2% SDS; western blot.

Take “USP25 ΔUBA (from UniProt Q9UHP3) (enzyme)”: the binding result is given as “binds”.
Next, “USP25 ΔUIM (from UniProt Q9UHP3) (enzyme)”: “binds”.
